Reference: PubChem BioAssay AID2685 (National Center for Advancing Translational Sciences (NCATS), 2010)
Some of the results follow. Further columns of the screen follow, without active or inactive calls. Most of these compounds were active or inconclusive in the main read-out, so they are no random draw. The note in brackets gives the kind of curve behind each potency; many fits are weak.

Assay: qHTS Assay for Lipid Storage Modulators in Drosophila S3 Cells;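 as to cell number change: cells counted by Cell Tracker Red CMTPX staining in the red channel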
Conditions: BODIPY lipid droplet fluorescence, 18-24 h; for cell number change: measured here: cell count max response, cells fed with added oleic acid
Procedure, shortened: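 Laser-scanning cytometry quantifies lipid droplet accumulation (500–530 nm total intensity; droplet/cell object ratio) in oleic acid-fed (400 uM added) Drosophila S3 cells treated with a concentration series. 20 uM Triacsin C defined 100% inhibition.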

[1] = measured here: cell number channel AC50, cells fed with added oleic acid
[2] = measured here: lipid fluorescence (Fed channel) AC50, cells fed with added oleic acid

Row | Structure (SMILES) | cell number change [%] | AC50 [1] | AC50 [2]
1 | COc1ccc(C(=O)ON=C2c3ccccc3-c3ccccc32)cc1OC | 49.9 | 6.51 µM [rising, single point] | 3.66 µM [rising, partial curve]
2 | Cc1ccc(C(=O)NCCSC(C)(C)C)cc1 | 10.6 | – | 18.4 µM [rising, single point]
3 | O=C(Nc1cccc(C(F)(F)F)c1)C1CCN(S(=O)(=O)c2cccnc2)CC1 | -0.382 | – | –
4 | COc1ccc(-c2cc(=O)oc3cc(OCC(=O)N(C)C4CCS(=O)(=O)C4)ccc23)cc1 (stereo not given) | 27.1 | – | 1.03 µM [rising, full curve]
5 | COCC(C)NC(=O)c1ccccc1[N+](=O)[O-] (stereo not given) | 9.89 | 1.46 µM [rising, partial curve] | 0.731 µM [falling, full curve]
6 | O=C(CN1C(=O)NC(Cc2c[nH]c3ccccc23)C1=O)Nc1cccc(S(=O)(=O)N2CCCC2)c1 (stereo not given) | -35.5 | – | 0.112 µM [falling, full curve]
7 | CN(C)c1nc(N)nc(-c2ccco2)n1 | 10.6 | – | 6.51 µM [falling, single point]
8 | COc1ccc2sc(-c3ccccc3OC)c(-c3ccc(OC)nc3)c2c1 | -36.7 | 29.1 µM [falling, single point] | 29.1 µM [rising, single point]
9 | Clc1ccc2nc(CN3CCCc4ccccc43)cn2c1 | 109 | 14.6 µM [rising, partial curve] | 16.4 µM [rising, partial curve]
10 | CCOC(=O)C1=C(C)NC(=O)NC1c1ccccc1Cl (stereo not given) | 11.3 | – | 13 µM [rising, single point]
11 | CSc1ccc(CNC(=O)C(C)n2nc(C)c3c(C)n(-c4ccccc4)nc3c2=O)cc1 (stereo not given) | -5.31 | – | 0.58 µM [rising, single point]
12 | CN(C)S(=O)(=O)c1ccc(N2CCCC2)c(C(=O)NCC2CCCCC2)c1 | -33.4 | 0.058 µM [falling, full curve] | 16.4 µM [falling, partial curve, poor fit]
13 | O=C(NCc1ccco1)c1ccc(Br)c(S(=O)(=O)N2CCCCC2)c1 | -12.4 | – | –
14 | Cc1ccc(S(=O)(=O)Cc2ccc(C(=O)NCCc3ccccc3)o2)cc1 | 24.8 | – | –
15 | Cc1ccc2nc(CSc3nnc(-c4ccncc4)n3C)cc(=O)n2c1 | -4.52 | – | 29.1 µM [falling, single point]
16 | CCC(C(=O)NCCC(C)C)N(Cc1ccccc1Cl)C(=O)c1snc(C(N)=O)c1N (stereo not given) | -56.7 | 8.2 µM [falling, partial curve, poor fit] | 29.1 µM [falling, single point]
17 | Cc1cc(OCC(O)CNC(C)c2ccccc2)ccc1C(C)C (stereo not given) | -49.3 | – | –
18 | O=C(Nc1cc([N+](=O)[O-])ccc1O)c1cccc(C(=O)Nc2cc([N+](=O)[O-])ccc2O)c1 | 28.1 | – | –
19 | O=C(CSc1nccc(=O)[nH]1)c1c[nH]c2ccccc12 | 17.3 | – | 9.2 µM [rising, partial curve]
20 | Nc1c(C(=O)NCc2ccccc2)c2nc3ccccc3nc2n1CCCN1CCOCC1 | -46.6 | 20.6 µM [falling, partial curve, poor fit] | 0.731 µM [rising, partial curve]

Gathered by group: the compounds so far with a Cl atom.
Row | Structure (SMILES) | cell number change [%] | AC50 [1] | AC50 [2]
9 | Clc1ccc2nc(CN3CCCc4ccccc43)cn2c1 | 109 | 14.6 µM [rising, partial curve] | 16.4 µM [rising, partial curve]
10 | CCOC(=O)C1=C(C)NC(=O)NC1c1ccccc1Cl (stereo not given) | 11.3 | – | 13 µM [rising, single point]
16 | CCC(C(=O)NCCC(C)C)N(Cc1ccccc1Cl)C(=O)c1snc(C(N)=O)c1N (stereo not given) | -56.7 | 8.2 µM [falling, partial curve, poor fit] | 29.1 µM [falling, single point]

Going on with the list.

Row | Structure (SMILES) | cell number change [%] | AC50 [1] | AC50 [2]
21 | CCC1(c2ccccc2)NC(=O)N(CC(=O)N(C)CC(=O)Nc2ccc(F)c(F)c2F)C1=O (stereo not given) | -27 | 4.61 µM [falling, full curve, poor fit] | 4.61 µM [falling, full curve, poor fit]
22 | C=CCc1c(C)[nH]c(=S)c(C#N)c1C | 37.4 | 0.731 µM [rising, full curve, poor fit] | 8.2 µM [rising, partial curve]
23 | Cc1ccc2c(CN3CCC(C)CC3)cc(=O)oc2c1C | -42.3 | 25.9 µM [falling, single point] | –
24 | Cc1c(C(=O)Nc2ccccc2)sc2nc(-c3ccccc3)cn12 | -65.7 | 29.1 µM [falling, single point] | –
25 | COc1ccc(CNC(=O)COC(=O)CCc2nc3ccccc3c(=O)[nH]2)cc1 | 39.9 | – | –
26 | O=C1CCCCC1Oc1ccc2ccc(=O)oc2c1 (stereo not given) | 14.8 | – | 5.8 µM [falling, single point]
27 | Cc1ccc(S(=O)(=O)N2CCOCC2)cc1NC(=O)CSc1ncccn1 | 23.7 | – | 0.411 µM [rising, single point]
28 | Cc1ccc(S(=O)(=O)N2CCC(C(=O)OC3CCOC3=O)CC2)cc1C (stereo not given) | 256 | 29.1 µM [rising, single point] | 18.4 µM [rising, single point]
29 | CCOC(=O)c1cc2c(nc1N)CC(C)(CC)OC2 (stereo not given) | 38.7 | 16.4 µM [rising, single point] | –
30 | O=C(Nc1cccc([N+](=O)[O-])c1)c1ccc(CN2CCOCC2)cc1 | – | 0.164 µM [rising, full curve, poor fit] | 6.51 µM [rising, single point]
31 | N#Cc1c(N)sc(=S)c2c1CCCC2 | 6.56 | – | –
32 | CC1CCC(NC(=O)C2CCC(CNS(=O)(=O)c3cccc4cccnc34)CC2)CC1 (stereo not given) | – | – | 6.51 µM [falling, single point]
33 | Cc1ccc(OCCn2cnc3c2c(=O)n(C)c(=O)n3C)cc1 | 18 | – | –
34 | C/C(=N\NC(N)=S)C12CC3CC(CC(C3)C1)C2 | -22.5 | – | 3.26 µM [falling, full curve]
35 | O=S(=O)(Nc1cc(Cl)ccn1)c1ccc(Cl)cc1 | -24.1 | 0.731 µM [falling, full curve] | 0.231 µM [falling, full curve]
36 | CC1=NC(C)(C)Cc2c(C)cccc21 | -28.7 | – | –
37 | COc1ccc(CCNc2c([N+](=O)[O-])ncn2C)cc1OC | 11.2 | – | –
38 | CC(=O)c1cccc(NC(=O)NC2CCCCC2)c1 | -30.7 | 29.1 µM [falling, single point] | –
39 | CCN(CC)S(=O)(=O)c1ccc(C(=O)N(c2ccccc2)C2C=CS(=O)(=O)C2)cc1 (stereo not given) | -20.7 | – | 0.0231 µM [rising, full curve, poor fit]
40 | CC(=O)c1cccc(NC(=O)CCCSc2ccccc2)c1 | -9.52 | – | 3.26 µM [falling, partial curve]

Row | Structure (SMILES) | cell number change [%] | AC50 [1] | AC50 [2]
41 | Cc1n[nH]c(C)c1CCC(=O)N/N=C/c1c[nH]c2ccccc12 | 6.79 | – | 0.13 µM [falling, full curve, poor fit]
42 | Cn1c(=O)c2c(nc(Oc3ccccn3)n2C)n(C)c1=O | -1.48 | – | –
43 | CC(C(=O)N1CCN(C2c3ccccc3-c3ccccc32)CC1)N1C(=O)c2ccccc2C1=O (stereo not given) | -19 | – | 5.17 µM [falling, partial curve]
44 | Cc1ccc(-c2nnc(N3CCOCC3)c3ccccc23)cc1S(=O)(=O)NCC1CCCO1 (stereo not given) | 0.768 | – | 0.92 µM [rising, full curve]
45 | CC(=O)c1cccc(N(C(=O)Cn2nnc3ccccc32)C(C(=O)NCc2ccccc2)c2ccccn2)c1 (stereo not given) | – | 6.51 µM [rising, single point] | 2.59 µM [rising, single point]
46 | COC(=O)c1ccc(Oc2ccc(C(F)(F)F)cn2)cc1 | -12.9 | 0.092 µM [falling, full curve] | 0.103 µM [falling, full curve, poor fit]
47 | Cc1ccccc1N(C(=O)c1snc(C(N)=O)c1N)C(C(=O)NC1CCCC1)c1ccco1 (stereo not given) | -5.65 | – | –
48 | CC(=O)C1=C(C)Nc2ncnn2C1c1cccc(OCc2ccccc2)c1 (stereo not given) | 3.02 | 0.92 µM [rising, full curve, poor fit] | –
49 | O=C(N/N=C/c1ccc(Cl)cc1Cl)Nc1ccccc1 | -42.4 | 29.1 µM [falling, single point] | –
50 | Cc1ccc(C)c2[nH]c(=O)c(CCNC(=O)c3ccc(S(=O)(=O)N4CCCC4)cc3)cc12 | – | – | 7.31 µM [falling, partial curve]
51 | Cc1ccc(NC(=O)C2CCCN2C(=O)c2cccs2)c(C)c1 (stereo not given) | -15.2 | – | –
52 | Cc1cc(C)nc(NC(=O)Nc2ccccc2C(F)(F)F)n1 | -3.09 | – | 13 µM [falling, partial curve]
53 | C/C(=N\Nc1cc(C)nc(-c2ccccc2O)n1)c1ccccc1O | 19.1 | – | 2.06 µM [rising, partial curve, poor fit]
54 | CC1Cn2c(nnc2-c2cccc(Cl)c2)S1 (stereo not given) | 12.3 | – | 0.0651 µM [rising, full curve, poor fit]
55 | Cc1cc(NC(=O)c2nn(C)c(C)c2Br)no1 | -44 | 29.1 µM [falling, single point] | 16.4 µM [rising, partial curve, poor fit]
56 | OC(CNC1CCCCCC1)COc1cccc2ccccc12 (stereo not given) | -15.3 | – | 29.1 µM [falling, single point]
57 | O=C(COc1ccccc1)N1CCN(C(=O)c2cccs2)CC1 | -37 | 0.517 µM [falling, full curve] | –
58 | CN(C)CC(CCC(CN(C)C)C(=O)c1ccccc1)C(=O)c1ccccc1 (stereo not given) | -65.5 | 23.1 µM [falling, single point] | 16.4 µM [falling, single point]
59 | O=c1cc(CSc2nnc(-c3cccs3)n2Cc2ccccc2)nc2sc3ccccc3n12 | -34.8 | 1.84 µM [falling, full curve] | 6.51 µM [falling, partial curve]
60 | CCOc1ccc(NS(=O)(=O)c2ccc(NC(=O)c3ccccn3)cc2)cc1 | 2.29 | – | 29.1 µM [rising, single point]
